This passage reports IC50 results from patent US11439646B2, “Anti-proliferative agents for treating PAH” (Pfizer Inc., priority 2016, dated 2022).

Format in all cases: cell-based
For assay [1], the system named is phospho-Rb (Ser807/811). As to the kind of experiment: In-cell western analysis of Rb phosphorylation in human PASMCs. Conditions: PASMC, 10% FBS, N = 6, FIG. 2c, read-out: Average IC50 (nM), inhibition of phosphorylation of Rb in hPASMCs. The protocol:
In-cell western analysis. Primary PASMCs from normal human subjects were cultured and serum-starved as described above. Cells were first pre-incubated with different concentrations of palbociclib for 60 minutes, and then either 5% FBS or 10% FBS or 30 ng/ml PDGF-BB was added to stimulate cell proliferation and Rb phosphorylation. The effect of Palbociclib on Rb phosphorylation was evaluated 24 h later, using in-cell western assay according to the manufacturer's instructions (Li-Cor Biosciences, Lincoln, Nebr., USA). Phosphorylated Rb was measured using a rabbit monoclonal antibody anti-phospho-Rb (Ser807/811) (Cell Signaling Technology, Inc., Danvers, Mass., USA), followed by detection with IRDye 800CW infrared fluorescent dye-labeled goat anti-rabbit secondary antibody. Actin levels were measured using mouse anti-actin monoclonal antibodies (pan Ab-5) (Fisher Scientific Pittsburgh, Pa., USA; Sigma Aldrich, St. Louis, Mo., USA), and followed by detection with IRDye 680RD-labeled goat anti-mouse secondary antibody. See FIG. 2a where 5% FBS was used, FIG. 2b where PDGF-BB was used, and FIG. 2c where 10% FBS was used.

The subject of assay [2] is rPASMC. The experiment in a line: EdU cell proliferation assay, rPASMC. Conditions: Rattus norvegicus, 5% FBS, N = 6, FIG. 1g, read-out: rPASMC IC50 (nM), inhibition of proliferation. The protocol: (§1) Alternatively, rather than using BrdU, EdU (5-ethynyl-2′-deoxyuridine) can be used. Cells were first pre-incubated with different concentrations of the CDK inhibitor for 30 minutes, and then 5% FBS was added to stimulate cell proliferation. Cells were maintained for 24 h before the proliferation rate was evaluated using EDU Click-iT EdU Alexa Fluor® 647 HCS Assay (Thermofisher Scientific, USA). EdU was added to the medium 16 h before the quantification of EdU incorporation. Proliferation was quantified by scanning the 96-well plates using automated high content imaging platform equipped with appropriate fluorescence microscopic filters for DAPI (4′,6-Diamidino-2-Phenylindole) or Hoechst stain and Cyanine5 dyes as part of the Click-iT assay. Proliferating EdU positive cells detected at Cyanine5 were quantified and normalized to total cell number per well where the total cell number per cell was identified by DAPI or Hoechst signal. The % effect was then calculated:
(§2) The average (avg) amount (amt) of proliferating cells per concentration of CDK inhibitor with FBS present.
(§3) The minimum amount of proliferation (min amt of prolif'n) is based on cell numbers in the wells where FBS is not added and no CDK inhibitor is present.
(§4) The maximum amount of proliferation (max amt of prolif'n) is based on cell numbers in the wells where FBS is added and no CDK inhibitor is present. […]

Assay [3] deals with hPAAF. The experiment in a line: EdU cell proliferation assay, hPAAF. Conditions: Homo sapiens, 5% FBS, N = 6, FIG. 1f, read-out: hPAAF IC50 (nM), inhibition of proliferation. How it is done:
as §1, §2, §3, §4

For the compound `CCc1cnn2c(NCc3ccc[n+]([O-])c3)cc(N3CCCC[C@H]3CCO)nc12` [Dinaciclib, 2-[(2S)-1-[3-ethyl-7-[(1-oxidopyridin-1-ium-3-yl)methylamino]pyrazolo[1,5-a]pyrimidin-5-yl]piperidin-2-yl]ethanol], the figures for the IC50 in assay [1], in assay [2] and in assay [3] were 5.65 nM, 1.1 nM and 0.2 nM, respectively.
